One compound from patent US20230348487A1, “2-AMINOPYRIMIDINE COMPOUND AND PHARMACEUTICAL COMPOSITION THEREOF AND APPLICATION THEREOF” (GUANGZHOU SALUSTIER BIOSCIENCES CO., LTD., priority 2021, published 2023) can be followed below.

Holding throughout (assay): CCK-8 in vitro proliferation inhibition
Holding throughout (type): cell-based

Assay [1] concerns human T lymphoblastic lymphoma cell line Jurkat. To be noted: 72 hours, read-out: Inhibitory activity (IC50) on cell proliferation, JURKAT. The procedure:
(§1) Cell lines: human chronic myeloid leukemia cell line K562, human acute myeloid leukemia cell line U937, human T lymphocyte leukemia cell line HuT78, and human T lymphoblastic lymphoma cell line Jurkat. Cells were purchased from the Chinese Academy of Sciences Stem Cell Bank or ATCC.
(§2) […] were cultured overnight and suspended cells were directly stimulated with drugs. […] Two repeats were set for each concentration, with a final volume of 200 μL. […] The absorbance values at 450 nm and 650 nm were measured using a microplate reader, and the increment Z (A450-A650) was derived. The inhibitory rate of drugs on cell growth was calculated by GraphPad Prism 8.0.0 through the following formula:
(§3) Inhibition rate (%)(ODcontrol−ODdosing)/ODcontrol×100%
(§4) The half inhibitory concentration (IC50) was calculated. Every experiment was repeated at least three times.

For assay [2], the system named is human T lymphocyte leukemia cell line HuT78. To be noted: 72 hours, read-out: Inhibitory activity (IC50) on cell proliferation, HUT78. The procedure: as §1, §2, §3, §4
The subject of assay [3] is human chronic myeloid leukemia cell line K562. As to conditions: 72 hours, read-out: Inhibitory activity (IC50) on cell proliferation, K562. The procedure:
as §1, §2, §3, §4

pIC50: −log10 of the molar value. A value given as a limit tells only on which side of the number the result lay.

As to `C[C@@H]1CCN(C(=O)CC#N)C[C@@H]1N(C)c1ncnc2[nH]ccc12` [Tofacitinib, reference compound], the results for the pIC50 in assay [1], in assay [2] and in assay [3] were less than 4.52, less than 4.52 and 4.66, respectively.
